From the supplement of paper PMC12819154, “High-throughput peptide-centric local stability assay extends protein–ligand identification to membrane proteins, tissues and bacteria” (Nature Structural & Molecular Biology, 2025)
Some of the results follow. Most values lie at the level of the controls, where differences are scatter.

Sequences of proteins named here, by UniProt entry; tags and fusion partners are left off. A change or cut given only in a name is not applied to a line headed by its entry.
UniProt Q8N554: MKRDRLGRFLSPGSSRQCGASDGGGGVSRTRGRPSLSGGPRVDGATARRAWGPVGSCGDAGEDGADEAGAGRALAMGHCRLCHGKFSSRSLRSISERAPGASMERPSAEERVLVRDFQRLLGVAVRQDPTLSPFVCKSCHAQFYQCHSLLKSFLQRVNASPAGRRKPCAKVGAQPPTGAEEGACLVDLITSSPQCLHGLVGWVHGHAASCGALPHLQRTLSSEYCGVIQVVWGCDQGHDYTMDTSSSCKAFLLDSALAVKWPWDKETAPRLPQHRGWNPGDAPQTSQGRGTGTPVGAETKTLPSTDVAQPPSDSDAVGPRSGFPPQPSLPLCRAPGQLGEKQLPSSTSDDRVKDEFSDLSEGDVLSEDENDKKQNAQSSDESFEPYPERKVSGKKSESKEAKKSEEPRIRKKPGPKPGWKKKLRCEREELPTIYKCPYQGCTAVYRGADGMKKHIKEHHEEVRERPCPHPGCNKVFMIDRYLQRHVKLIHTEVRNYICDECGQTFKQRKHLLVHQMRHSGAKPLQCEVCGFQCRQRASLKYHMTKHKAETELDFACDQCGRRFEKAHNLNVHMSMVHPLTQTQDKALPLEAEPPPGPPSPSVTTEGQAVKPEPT
UniProt Q8N9L9: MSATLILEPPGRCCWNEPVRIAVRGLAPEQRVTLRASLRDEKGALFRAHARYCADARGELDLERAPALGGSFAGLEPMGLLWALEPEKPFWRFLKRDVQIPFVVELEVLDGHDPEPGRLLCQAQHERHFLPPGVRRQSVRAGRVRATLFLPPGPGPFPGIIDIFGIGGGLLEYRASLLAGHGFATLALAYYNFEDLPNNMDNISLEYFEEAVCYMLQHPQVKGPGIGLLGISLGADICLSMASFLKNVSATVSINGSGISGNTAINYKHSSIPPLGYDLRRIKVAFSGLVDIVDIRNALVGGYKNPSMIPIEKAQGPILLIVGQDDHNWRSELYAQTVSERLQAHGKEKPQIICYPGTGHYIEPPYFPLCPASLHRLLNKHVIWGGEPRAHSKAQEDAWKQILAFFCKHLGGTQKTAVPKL
UniProt Q8NFI3: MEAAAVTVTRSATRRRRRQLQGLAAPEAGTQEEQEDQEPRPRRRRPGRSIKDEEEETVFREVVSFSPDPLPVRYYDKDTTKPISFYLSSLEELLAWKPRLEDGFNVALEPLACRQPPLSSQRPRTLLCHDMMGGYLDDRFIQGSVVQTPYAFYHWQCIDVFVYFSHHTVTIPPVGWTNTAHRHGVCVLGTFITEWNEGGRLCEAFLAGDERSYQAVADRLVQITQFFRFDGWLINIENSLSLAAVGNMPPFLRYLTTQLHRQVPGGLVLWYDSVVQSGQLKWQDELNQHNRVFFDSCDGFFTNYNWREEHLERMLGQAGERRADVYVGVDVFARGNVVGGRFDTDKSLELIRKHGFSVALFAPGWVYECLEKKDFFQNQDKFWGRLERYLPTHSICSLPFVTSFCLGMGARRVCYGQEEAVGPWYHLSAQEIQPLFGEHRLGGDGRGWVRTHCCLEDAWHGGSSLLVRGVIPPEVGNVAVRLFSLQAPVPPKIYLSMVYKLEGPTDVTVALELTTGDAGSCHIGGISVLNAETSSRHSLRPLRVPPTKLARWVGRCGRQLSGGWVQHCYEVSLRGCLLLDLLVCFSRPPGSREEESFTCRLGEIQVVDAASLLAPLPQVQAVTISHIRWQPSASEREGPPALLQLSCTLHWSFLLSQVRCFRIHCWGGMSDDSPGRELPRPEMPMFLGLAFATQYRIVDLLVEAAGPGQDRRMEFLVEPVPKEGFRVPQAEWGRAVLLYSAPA
UniProt Q8NB37: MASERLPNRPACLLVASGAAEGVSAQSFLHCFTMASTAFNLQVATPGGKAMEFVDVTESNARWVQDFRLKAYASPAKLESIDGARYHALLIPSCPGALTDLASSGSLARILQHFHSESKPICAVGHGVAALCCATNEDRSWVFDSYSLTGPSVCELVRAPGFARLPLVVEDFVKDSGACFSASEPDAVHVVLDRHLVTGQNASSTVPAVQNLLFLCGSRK
UniProt Q8N6N3: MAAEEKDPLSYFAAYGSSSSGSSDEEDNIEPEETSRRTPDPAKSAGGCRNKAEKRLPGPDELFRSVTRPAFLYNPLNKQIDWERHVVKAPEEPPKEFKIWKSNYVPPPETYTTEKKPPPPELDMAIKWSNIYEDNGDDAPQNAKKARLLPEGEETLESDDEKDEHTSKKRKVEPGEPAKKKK
UniProt Q8NEZ2: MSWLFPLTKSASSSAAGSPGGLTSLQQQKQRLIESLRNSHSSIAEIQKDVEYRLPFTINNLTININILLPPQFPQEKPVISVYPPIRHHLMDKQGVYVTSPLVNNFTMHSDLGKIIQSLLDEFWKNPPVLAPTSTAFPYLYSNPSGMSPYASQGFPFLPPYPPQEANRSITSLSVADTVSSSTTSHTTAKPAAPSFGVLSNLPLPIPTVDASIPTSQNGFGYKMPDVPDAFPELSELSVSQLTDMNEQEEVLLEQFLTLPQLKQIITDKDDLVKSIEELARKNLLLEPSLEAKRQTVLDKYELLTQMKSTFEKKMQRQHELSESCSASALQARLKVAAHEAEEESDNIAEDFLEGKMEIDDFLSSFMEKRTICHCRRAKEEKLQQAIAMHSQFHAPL
UniProt Q8N5W9: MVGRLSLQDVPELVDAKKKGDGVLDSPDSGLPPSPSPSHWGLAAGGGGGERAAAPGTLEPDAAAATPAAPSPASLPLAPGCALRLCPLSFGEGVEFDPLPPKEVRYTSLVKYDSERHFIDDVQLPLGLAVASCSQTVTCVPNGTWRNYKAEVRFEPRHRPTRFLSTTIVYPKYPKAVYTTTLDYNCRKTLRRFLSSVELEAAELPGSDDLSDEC
UniProt Q8NEM7: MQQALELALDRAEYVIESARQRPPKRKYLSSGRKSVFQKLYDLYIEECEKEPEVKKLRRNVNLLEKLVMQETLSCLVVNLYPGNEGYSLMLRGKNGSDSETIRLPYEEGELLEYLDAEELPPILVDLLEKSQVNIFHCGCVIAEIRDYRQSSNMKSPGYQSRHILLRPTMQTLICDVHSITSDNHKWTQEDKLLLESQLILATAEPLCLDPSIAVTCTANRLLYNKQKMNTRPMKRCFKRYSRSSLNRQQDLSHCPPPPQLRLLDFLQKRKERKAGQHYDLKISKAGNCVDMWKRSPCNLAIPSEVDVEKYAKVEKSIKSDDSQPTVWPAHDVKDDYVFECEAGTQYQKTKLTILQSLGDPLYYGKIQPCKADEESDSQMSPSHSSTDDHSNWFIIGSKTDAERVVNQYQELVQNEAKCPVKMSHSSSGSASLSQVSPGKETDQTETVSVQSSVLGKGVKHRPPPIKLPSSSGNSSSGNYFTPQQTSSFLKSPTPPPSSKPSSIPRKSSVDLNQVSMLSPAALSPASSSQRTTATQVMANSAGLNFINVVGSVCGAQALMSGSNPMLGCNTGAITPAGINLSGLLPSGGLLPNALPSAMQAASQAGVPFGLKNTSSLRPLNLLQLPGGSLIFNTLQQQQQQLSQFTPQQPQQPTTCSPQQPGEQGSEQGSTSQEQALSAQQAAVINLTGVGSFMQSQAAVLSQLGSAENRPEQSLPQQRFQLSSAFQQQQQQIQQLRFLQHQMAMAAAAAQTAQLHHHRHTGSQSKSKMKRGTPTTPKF
UniProt Q8NBX0: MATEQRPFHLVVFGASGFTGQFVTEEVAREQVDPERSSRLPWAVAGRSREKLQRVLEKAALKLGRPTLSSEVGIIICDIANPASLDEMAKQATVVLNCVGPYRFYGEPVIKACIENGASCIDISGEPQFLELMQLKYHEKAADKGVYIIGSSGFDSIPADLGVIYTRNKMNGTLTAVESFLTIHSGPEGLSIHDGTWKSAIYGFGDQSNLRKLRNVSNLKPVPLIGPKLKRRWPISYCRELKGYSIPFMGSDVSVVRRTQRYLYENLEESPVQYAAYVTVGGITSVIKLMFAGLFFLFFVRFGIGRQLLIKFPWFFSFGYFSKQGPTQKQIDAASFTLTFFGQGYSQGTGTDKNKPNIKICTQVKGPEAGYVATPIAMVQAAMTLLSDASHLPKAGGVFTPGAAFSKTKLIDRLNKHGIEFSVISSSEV
UniProt Q8TAM1: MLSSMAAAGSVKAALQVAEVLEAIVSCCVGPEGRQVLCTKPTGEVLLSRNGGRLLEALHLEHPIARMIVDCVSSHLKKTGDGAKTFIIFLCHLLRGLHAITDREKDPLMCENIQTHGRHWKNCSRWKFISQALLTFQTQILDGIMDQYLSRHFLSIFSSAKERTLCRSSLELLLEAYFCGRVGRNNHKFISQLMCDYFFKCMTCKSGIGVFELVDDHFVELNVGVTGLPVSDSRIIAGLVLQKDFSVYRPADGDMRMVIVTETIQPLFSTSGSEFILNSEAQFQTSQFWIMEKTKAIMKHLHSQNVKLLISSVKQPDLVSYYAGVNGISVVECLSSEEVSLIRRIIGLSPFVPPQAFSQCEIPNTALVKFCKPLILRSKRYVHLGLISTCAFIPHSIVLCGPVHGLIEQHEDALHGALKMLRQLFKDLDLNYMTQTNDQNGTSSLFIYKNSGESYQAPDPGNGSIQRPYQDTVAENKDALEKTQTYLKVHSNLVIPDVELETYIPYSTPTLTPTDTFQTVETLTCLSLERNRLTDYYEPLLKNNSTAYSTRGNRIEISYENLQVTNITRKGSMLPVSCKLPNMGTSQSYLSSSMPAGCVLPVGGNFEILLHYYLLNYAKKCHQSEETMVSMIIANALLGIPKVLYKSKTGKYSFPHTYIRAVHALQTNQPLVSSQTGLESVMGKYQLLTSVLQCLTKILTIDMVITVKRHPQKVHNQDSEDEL
UniProt Q8TB05: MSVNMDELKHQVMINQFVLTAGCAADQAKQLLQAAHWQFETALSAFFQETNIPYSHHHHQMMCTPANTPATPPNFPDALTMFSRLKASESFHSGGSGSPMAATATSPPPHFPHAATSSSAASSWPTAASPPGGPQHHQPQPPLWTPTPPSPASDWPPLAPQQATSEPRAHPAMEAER
UniProt Q8N4S0: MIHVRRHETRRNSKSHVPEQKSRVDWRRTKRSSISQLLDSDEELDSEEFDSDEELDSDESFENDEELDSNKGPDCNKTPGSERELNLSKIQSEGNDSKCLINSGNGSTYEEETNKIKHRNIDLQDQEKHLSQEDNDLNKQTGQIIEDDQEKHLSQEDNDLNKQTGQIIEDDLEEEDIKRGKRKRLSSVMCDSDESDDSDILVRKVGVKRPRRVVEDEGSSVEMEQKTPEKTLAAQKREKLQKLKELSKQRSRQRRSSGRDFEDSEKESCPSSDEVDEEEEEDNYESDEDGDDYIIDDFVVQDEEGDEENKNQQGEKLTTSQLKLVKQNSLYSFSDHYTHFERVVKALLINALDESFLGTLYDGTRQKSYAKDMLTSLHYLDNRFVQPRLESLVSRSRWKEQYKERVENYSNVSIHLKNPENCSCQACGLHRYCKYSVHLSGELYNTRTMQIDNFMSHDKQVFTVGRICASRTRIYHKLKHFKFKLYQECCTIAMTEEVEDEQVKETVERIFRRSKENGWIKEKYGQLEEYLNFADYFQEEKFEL
UniProt Q8NFF5: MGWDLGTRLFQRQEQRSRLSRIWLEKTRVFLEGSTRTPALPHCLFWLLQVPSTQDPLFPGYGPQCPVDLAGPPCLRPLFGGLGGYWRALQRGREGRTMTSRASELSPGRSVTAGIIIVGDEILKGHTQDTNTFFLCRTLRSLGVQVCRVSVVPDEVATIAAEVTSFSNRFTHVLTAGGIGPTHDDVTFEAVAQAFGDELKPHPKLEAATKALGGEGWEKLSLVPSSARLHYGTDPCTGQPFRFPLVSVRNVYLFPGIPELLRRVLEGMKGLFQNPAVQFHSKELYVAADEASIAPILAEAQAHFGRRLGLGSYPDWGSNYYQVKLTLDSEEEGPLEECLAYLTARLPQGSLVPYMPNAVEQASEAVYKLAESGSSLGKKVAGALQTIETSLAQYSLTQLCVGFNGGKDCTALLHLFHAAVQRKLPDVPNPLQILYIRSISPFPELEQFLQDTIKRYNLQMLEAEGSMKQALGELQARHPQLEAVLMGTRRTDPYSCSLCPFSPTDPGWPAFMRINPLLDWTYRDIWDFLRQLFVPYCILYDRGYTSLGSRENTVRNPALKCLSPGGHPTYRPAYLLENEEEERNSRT
UniProt Q8NCW5: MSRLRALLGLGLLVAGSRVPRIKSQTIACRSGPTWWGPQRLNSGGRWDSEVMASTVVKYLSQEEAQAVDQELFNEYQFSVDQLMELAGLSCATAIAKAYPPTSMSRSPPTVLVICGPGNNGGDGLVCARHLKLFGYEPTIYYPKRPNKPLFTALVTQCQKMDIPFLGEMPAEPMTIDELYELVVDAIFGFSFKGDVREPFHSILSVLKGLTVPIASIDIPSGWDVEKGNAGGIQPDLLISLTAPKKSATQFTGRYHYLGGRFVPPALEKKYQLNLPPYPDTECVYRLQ
UniProt Q8TBF2: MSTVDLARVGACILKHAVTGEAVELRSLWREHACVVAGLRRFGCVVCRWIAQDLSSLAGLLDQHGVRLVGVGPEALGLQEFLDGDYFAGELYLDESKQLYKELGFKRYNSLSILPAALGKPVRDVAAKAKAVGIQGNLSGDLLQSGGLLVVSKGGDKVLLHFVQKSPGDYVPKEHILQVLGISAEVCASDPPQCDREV

Each target was assayed with CN[C@@H]1C[C@H]2O[C@@](C)([C@@H]1OC)n1c3ccccc3c3c4c(c5c6ccccc6n2c5c31)C(=O)NC4 [staurosporine] (assay: log2 fold change of tryptic peptide abundance, ligand vs vehicle (limited proteolysis) (log2 ratio); higher = more trypsin-susceptible (destabilized)). Settings: ligand concentration: 20 uM; sample: K562 cleared lysate; digestion: 4 min, 22 C (HT-PELSA RT4min, Orbitrap Astral).

Row | Target | log2 fold change
1 | PCSK9 (peptide sequence: VLNAACQR, peptide start residue: 296) (UniProt Q8NBP7) | 0.233
2 | UniProt Q8N554 (peptide sequence: APGASMERPSAEER, peptide start residue: 98) | -0.557
3 | TDRD7 (peptide sequence: TMPFFLEGKPK, peptide start residue: 110) (UniProt Q8NHU6) | -0.191
4 | C2orf69 (peptide sequence: SLNVWNKDSIASNCR, peptide start residue: 206) (UniProt Q8N8R5) | 0.197
5 | UniProt Q8N9L9 (peptide sequence: IKVAFSGLVDIVDIR, peptide start residue: 282) | -0.425
6 | HELB (peptide sequence: TCGVNDDESPSK, peptide start residue: 1040) (UniProt Q8NG08) | 0.476
7 | ENGASE (peptide sequence: MEAAAVTVTR, peptide start residue: 1) (UniProt Q8NFI3) | -0.0599
8 | UniProt Q8NFJ9 (peptide sequence: GGGLIIK, peptide start residue: 394) | 0.119
9 | CPSF7 (peptide sequence: VDVRPATR, peptide start residue: 155) (UniProt Q8N684) | 0.276
10 | UniProt Q8NB37 (peptide sequence: LESIDGAR, peptide start residue: 78) | 0.157
11 | POC5 (peptide sequence: KEEYGPGVQGK, peptide start residue: 385) (UniProt Q8NA72) | 1
12 | EHBP1 (peptide sequence: RYELLNR, peptide start residue: 1148) (UniProt Q8NDI1) | 0.498
13 | C1orf52 (peptide sequence: APEEPPKEFK, peptide start residue: 89) (UniProt Q8N6N3) | 0.175
14 | ABCF1 (peptide sequence: RYGLVGPNGK, peptide start residue: 331) (UniProt Q8NE71) | 0.525
15 | VPS37A (peptide sequence: MEIDDFLSSFMEKR, peptide start residue: 357) (UniProt Q8NEZ2) | 0.121
16 | UniProt Q8N5H3 (peptide sequence: RPVNLDSALAALRK, peptide start residue: 82) | -0.0913
17 | NCOA7 (peptide sequence: DTLKECLSLDPEER, peptide start residue: 434) (UniProt Q8NI08) | -0.157
18 | FAM98A (peptide sequence: TTISVAHLLAAR, peptide start residue: 261) (UniProt Q8NCA5) | 0.195
19 | ZCCHC7 (peptide sequence: KNGVIPEPSKLPYIK, peptide start residue: 403) (UniProt Q8N3Z6) | -0.3

Row | Target | log2 fold change
20 | JAGN1 (peptide sequence: AAGTDGSDFQHR, peptide start residue: 9) (UniProt Q8N5M9) | -0.209
21 | UniProt Q8NFP7 (peptide sequence: EWFKVEDAIK, peptide start residue: 118) | -0.0987
22 | RFLNB (peptide sequence: FLSTTIVYPK, peptide start residue: 163) (UniProt Q8N5W9) | 0.184
23 | ZBTB34 (peptide sequence: ESQITEVK, peptide start residue: 228) (UniProt Q8NCN2) | 0.162
24 | SERBP1 (peptide sequence: EAGGGGVGGPGAK, peptide start residue: 40) (UniProt Q8NC51) | -0.13
25 | SUPT20H (peptide sequence: SPTPPPSSKPSSIPR, peptide start residue: 492) (UniProt Q8NEM7) | -0.275
26 | SLC43A3 (peptide sequence: EETPGAGQK, peptide start residue: 256) (UniProt Q8NBI5) | -0.333
27 | UniProt Q8NHS0 (peptide sequence: IVENGQER, peptide start residue: 208) | -0.0836
28 | SCCPDH (peptide sequence: RWPISYCRELK, peptide start residue: 232) (UniProt Q8NBX0) | 0.166
29 | NIN (peptide sequence: LQQENSILR, peptide start residue: 798) (UniProt Q8N4C6) | -0.115
30 | UniProt Q8NB78 (peptide sequence: AAATGNASPGKLEHSK, peptide start residue: 240) | 0.256
31 | UniProt Q8TAM1 (peptide sequence: MIVDCVSSHLK, peptide start residue: 67) | -0.315
32 | UniProt Q8TB05 (peptide sequence: AHPAMEAER, peptide start residue: 169) | 0.129
33 | ARFGAP2 (peptide sequence: LREQQAADAK, peptide start residue: 254) (UniProt Q8N6H7) | 0.348
34 | CCDC82 (peptide sequence: NIDLQDQEK, peptide start residue: 120) (UniProt Q8N4S0) | -0.25
35 | FLAD1 (peptide sequence: DCTALLHLFHAAVQR, peptide start residue: 408) (UniProt Q8NFF5) | 0.401
36 | UniProt Q8NCW5 (peptide sequence: SGPTWWGPQR, peptide start residue: 31) | 0.0201
37 | UniProt Q8TBF2 (peptide sequence: RYNSLSILPAALGKPVR, peptide start residue: 107) | 0.159

Another view of some results above.

| Row | Target | log2 fold change |
| --- | --- | --- |
| 23 | ZBTB34 (peptide sequence: ESQITEVK, peptide start residue: 228) (UniProt Q8NCN2) | 0.162 |
| 37 | UniProt Q8TBF2 (peptide sequence: RYNSLSILPAALGKPVR, peptide start residue: 107) | 0.159 |
